According to PMC11352099 (RSC Medicinal Chemistry, 2024):

Test: Caco-2 permeability assay
Details: human
Experimental: 3.5. Caco-2 permeability assay
Transepithelial bi-directional transport of compounds (10 µM, pH 7.4/7.4) was tested on 21-day differentiated Caco-2 monolayers. Briefly, the cells were seeded at a density of 67 ,500 cells per 96-well plate insert (Millicell®, Merck KGaA, Darmstadt, Germany). They were left to differentiate for 21 days with medium exchange every 2–3 days. Prior to the experiment, the medium from both apical and basolateral well was exchanged for HBSS buffer (containing 10 mM HEPES and 25 mM glucose) and left to equilibrate for 30 min. […] After that, samples were collected from both apical inserts and basolateral wells and analyzed using LC -MS/MS (SCIEX Triple Quad™ 7500 QTRAP® Ready). […]
The apparent permeability coefficient (Papp) was calculated from t he following equation: Papp = (dQ / dt) / C0 * A, where dQ/dt is the rate of absorption of the drug across the cells, C0 is the donor compartment concentration at time zero, and A is the area of the monolayer. Efflux ratio was expressed as (Papp B -A) / (Papp A-B). Recovery (%) was determined as (total compound mass i n donor and receiver compartments at the end of the incubation / initial compound mass in the donor compartment) x 100. […]

CC(C)NCC(O)COc1ccc(CC(N)=O)cc1 (centres unmarked) [Atenolol, reference compound]
Papp A→B at 2 h, 10 µM (Caco-2): 0.3 ± 0.1 ×10⁻⁶ cm/s | recovery at 2 h, 10 µM (Caco-2, Recovery (%) A-B, Table S2, A to B transport): 105%
